Test results from ChEMBL document CHEMBL3351454, “Design, synthesis, antimicrobial evaluation and molecular docking studies of some new thiophene, pyrazole and pyridone derivatives bearing sulfisoxazole moiety” (2014).

Tested on: Escherichia coli
Test: Antimicrobial activity against Escherichia coli RCMB 010052 assessed as inhibition zone at 5 mg/ml after 24 hrs
Format: functional
Procedure, shortened: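 Agar diffusion on nutrient agar seeded with 10^6 CFU/mL bacteria. Filter-paper disks were loaded with 100 µL of a 5 mg/mL compound solution in DMF, with a DMF-only control. Incubation was 37 °C for 24 h. Inhibition zone in mm (mean ± SD, triplicate plates) was measured beyond the 6 mm diameter.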

GENTAMICIN
inhibition zone (IZ): 19.9 mm
